Results: article PMC10145938
Read-outs that look alike come from different tables or passages of the source. These are yes or no findings as the source states them, for the method shown. In cells and extracts the contact can be indirect. Some binding calls cover weakened binding; strength is not graded here. For some of these results: Tags and fused reporters may be left off the sequences shown.

Sequences of proteins named here, by UniProt entry; tags and fusion partners are left off. Residues count along the entry.
UniProt Q08830, residues 23-312: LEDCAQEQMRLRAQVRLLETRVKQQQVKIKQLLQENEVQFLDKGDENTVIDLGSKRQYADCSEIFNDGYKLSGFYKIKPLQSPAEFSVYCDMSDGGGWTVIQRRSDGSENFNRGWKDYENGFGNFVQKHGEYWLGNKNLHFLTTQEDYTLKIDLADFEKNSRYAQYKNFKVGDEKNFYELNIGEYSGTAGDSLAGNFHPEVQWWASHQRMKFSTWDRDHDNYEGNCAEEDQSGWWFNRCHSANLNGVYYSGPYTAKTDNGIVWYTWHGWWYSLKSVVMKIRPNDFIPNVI
UniProt Q9NRC8: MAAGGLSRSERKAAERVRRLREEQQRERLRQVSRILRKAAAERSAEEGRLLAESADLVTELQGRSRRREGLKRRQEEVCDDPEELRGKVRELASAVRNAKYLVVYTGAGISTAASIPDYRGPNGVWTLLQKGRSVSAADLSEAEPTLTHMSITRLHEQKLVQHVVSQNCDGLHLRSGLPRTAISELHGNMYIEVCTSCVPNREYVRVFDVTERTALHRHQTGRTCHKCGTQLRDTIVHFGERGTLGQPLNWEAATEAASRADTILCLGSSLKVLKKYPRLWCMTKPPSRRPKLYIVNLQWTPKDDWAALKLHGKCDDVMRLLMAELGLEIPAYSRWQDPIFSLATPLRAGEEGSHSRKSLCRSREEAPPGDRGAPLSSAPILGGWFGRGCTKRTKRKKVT

Experiments:
[1] = molecular target: Flag-tagged FGL1 (fibrinogen-like protein 1), WT (human) (UniProt Q08830); test: co-IP; Flag-IP: lysates (NP-40 lysis buffer, 150 mM NaCl, 50 mM Tris-HCl pH 7.5) of transfected HEK293T cells incubated with anti-Flag beads overnight at 4°C, washed 5 times with NP-40 buffer, immunoblot
[2] = molecular target: Flag-tagged FGL1 (fibrinogen-like protein 1), WT (human) (UniProt Q08830); test: as above; remark: listed apart in the source
[3] = molecular target: endogenous FGL1 (fibrinogen-like protein 1) (human (endogenous in HCCLM3)) (UniProt Q08830); test: co-IP; endogenous IP from HCCLM3 cells: NP-40 lysis buffer with protease inhibitors, 5 μM TSA and 10 mM NAM; anti-FGL1 antibody overnight, Protein G Sepharose 6 hours at 4°C; IgG as negative control; immunoblot

binding [1]	Molecule	other results
no binding	SIRT7-HA (Sirtuin 7) (from UniProt Q9NRC8 1-400) (enzyme)	
binds	Flag-tagged FGL1 (fibrinogen-like protein 1), WT (from UniProt Q08830 23-312)	
	SIRT2-HA (Sirtuin 2) (enzyme, UniProt Q8IXJ6 1-389) MAEPDPSHPLETQAGKVQEAQDSDSDSEGGAAGGEADMDFLRNLFSQTLSLGSQKERLLDELTLEGVARYMQSERCRRVICLVGAGISTSAGIPDFRSPSTGLYDNLEKYHLPYPEAIFEISYFKKHPEPFFALAKELYPGQFKPTICHYFMRLLKDKGLLLRCYTQNIDTLERIAGLEQEDLVEAHGTFYTSHCVSASCRHEYPLSWMKEKIFSEVTPKCEDCQSLVKPDIVFFGESLPARFFSCMQSDFLKVDLLLVMGTSLQVQPFASLISKAPLSTPRLLINKEKAGQSDPFLGMIMGLGGGMDFDSKKAYRDVAWLGECDQGCLALAELLGWKKELEDLVRREHASIDAQSGAGVPNPSTSASPKKSPPPAKDEARTTEREKPQ	binding [2]: binds
	endogenous SIRT2 (Sirtuin 2) (enzyme, UniProt Q8IXJ6 1-389) MAEPDPSHPLETQAGKVQEAQDSDSDSEGGAAGGEADMDFLRNLFSQTLSLGSQKERLLDELTLEGVARYMQSERCRRVICLVGAGISTSAGIPDFRSPSTGLYDNLEKYHLPYPEAIFEISYFKKHPEPFFALAKELYPGQFKPTICHYFMRLLKDKGLLLRCYTQNIDTLERIAGLEQEDLVEAHGTFYTSHCVSASCRHEYPLSWMKEKIFSEVTPKCEDCQSLVKPDIVFFGESLPARFFSCMQSDFLKVDLLLVMGTSLQVQPFASLISKAPLSTPRLLINKEKAGQSDPFLGMIMGLGGGMDFDSKKAYRDVAWLGECDQGCLALAELLGWKKELEDLVRREHASIDAQSGAGVPNPSTSASPKKSPPPAKDEARTTEREKPQ	binding [3]: binds
